Assay results from PubChem BioAssay AID540256 (National Center for Advancing Translational Sciences (NCATS), 2011).
The campaign covered roughly 300,000 compounds. About 3,700 (1.2%) were called active. The inconclusive results got no clear call from the source; some entries with a clear call stand among them for comparison. Calls come from the whole dose curve; tested in HEK293 cells. Potencies beside an inconclusive call are fits to weak or partial responses and may not hold up.

Assay: qHTS for Inhibitors of binding or entry into cells for Lassa Virus; note: nearly all actives have a fitted effect of over 50% in size
Details: Lassa virus pseudotype entry inhibition, cell reporter; activity change, negative = inhibition: at 37.9 µM (top of the series) unless noted
% is set by controls: 0 for no effect and ±100 for the full control effect; potency is the fitted concentration of half-maximal effect.

| SMILES | Potency | activity change, negative = inhibition |
| --- | --- | --- |
| COc1cc(-c2nnc(SCC(=O)N3c4ccccc4Sc4ccccc43)o2)cc(OC)c1OC | inconclusive: 17.8 µM [inhibitor, partial curve, poor fit] |  |
| NS(=O)(=O)c1cccc(NC(=O)COC(=O)CCSc2ccccc2)c1 |  | inactive: 0.814% |
| O=C(COC(=O)C1CCN(/C=C/C(=O)C(F)(F)F)CC1)Nc1cccc(F)c1 | inconclusive: 0.058 µM [inhibitor, full curve, poor fit] |  |
| Cn1c(Oc2ccccc2)nc2c1c(=O)n(Cc1ccc(Cl)cc1Cl)c(=O)n2C |  | inactive: -7.19% [at 46.1 µM] |
| O=C(Cn1nc(-c2ccccc2)c2ccccc2c1=O)NN1CCOCC1 |  | inactive: 4.36% [at 46.1 µM] |
| CC(C)(C)OC(=O)N1CCC(c2c(C(=O)N3CCCCC3)cnn2-c2ccc(F)cc2F)CC1 | inconclusive: 1 µM [inhibitor, full curve, poor fit] |  |
| COc1cc(OC)c(CN2CCN(c3ccc(F)cc3)CC2)cc1Br | inconclusive: 18.3 µM [activator, single point] |  |
| Cc1ccc(-n2ncc(C(=O)NCCCN3CCN(C)CC3)c2C2CCN(C(=O)OC(C)(C)C)CC2)c(C)c1 | inconclusive: 14.1 µM [inhibitor, partial curve, poor fit] |  |
| C=CCN1C(=O)/C(=C2/Sc3ccc(OC)cc3N2C)SC1=Nc1ccccc1 | inconclusive: 29.1 µM [inhibitor, single point] |  |
| O=c1[nH]c(/C=C/c2cccc3ccccc23)nc2ccccc12 |  | inactive: 0.494% |
| COc1ccc(-c2[nH]c(-c3ccc4c(c3)OCO4)nc2-c2ccccc2)cc1 | inconclusive: 29.1 µM [inhibitor, single point] |  |
| Oc1cccc2ccc[n+](CC(O)Cn3c4ccccc4c4ccccc43)c12 (centres undefined) | inconclusive: 35.5 µM [inhibitor, single point] |  |
| NC(=O)c1cc(Br)cc2c3c([nH]c12)CCCC3 | inconclusive: 3.55 µM [inhibitor, partial curve, poor fit] |  |
| Cc1ccc(C)c(CN2CCN(c3ncccn3)CC2)c1 |  | inactive: 4.79% [at 46.1 µM] |
| COc1cccc(Nc2sc(C(=O)c3ccc(Cl)cc3)c(N)c2C(=O)NCCc2ccc(OC)c(OC)c2)c1 |  | inactive: -24.2% [at 46.1 µM] |
| FC(F)(F)c1nnc2c(Sc3ccccc3)nc3ccc(Cl)cc3n12 | inconclusive: 25.9 µM [inhibitor, partial curve] |  |
| N#C/C(=C\c1ccccc1)C(=O)NCc1ccc(F)cc1 | inconclusive: 31.6 µM [inhibitor, single point] |  |
| O=[N+]([O-])c1cc([N+](=O)[O-])c(N2CCOCC2)cc1NCc1ccccc1 |  | inactive: -5.4% |
| COc1ccc(CN2CCN(C(=O)c3ccc(S(=O)(=O)NCc4ccco4)cc3)CC2)cc1F | inconclusive: 35.5 µM [inhibitor, single point] |  |
| COc1ccc(OC)c(Nc2c3c(nc4ccccc24)CCC3)c1 | inconclusive: 8.91 µM [inhibitor, partial curve, poor fit] |  |
| C=CCC(C=C)S(=O)(=O)c1ccc(C)cc1 (centres undefined) | inconclusive: 18.3 µM [activator, single point] |  |
| CCCN(Cc1cccs1)C(=O)Nc1ccc(F)c(Cl)c1 |  | inactive: 0.77% [at 46.1 µM] |
| COc1ccc(CCN2C(=O)C3C(C2=O)C2C=CC3C23CC3)cc1OC (centres undefined) | inconclusive: 11.2 µM [inhibitor, partial curve, poor fit] |  |

19 entries already listed, arranged by SMILES length, descending:

| SMILES | Potency | activity change, negative = inhibition |
| --- | --- | --- |
| Cc1ccc(-n2ncc(C(=O)NCCCN3CCN(C)CC3)c2C2CCN(C(=O)OC(C)(C)C)CC2)c(C)c1 | inconclusive: 14.1 µM [inhibitor, partial curve, poor fit] |  |
| COc1cccc(Nc2sc(C(=O)c3ccc(Cl)cc3)c(N)c2C(=O)NCCc2ccc(OC)c(OC)c2)c1 |  | inactive: -24.2% [at 46.1 µM] |
| CC(C)(C)OC(=O)N1CCC(c2c(C(=O)N3CCCCC3)cnn2-c2ccc(F)cc2F)CC1 | inconclusive: 1 µM [inhibitor, full curve, poor fit] |  |
| COc1ccc(CN2CCN(C(=O)c3ccc(S(=O)(=O)NCc4ccco4)cc3)CC2)cc1F | inconclusive: 35.5 µM [inhibitor, single point] |  |
| COc1cc(-c2nnc(SCC(=O)N3c4ccccc4Sc4ccccc43)o2)cc(OC)c1OC | inconclusive: 17.8 µM [inhibitor, partial curve, poor fit] |  |
| O=[N+]([O-])c1cc([N+](=O)[O-])c(N2CCOCC2)cc1NCc1ccccc1 |  | inactive: -5.4% |
| O=C(COC(=O)C1CCN(/C=C/C(=O)C(F)(F)F)CC1)Nc1cccc(F)c1 | inconclusive: 0.058 µM [inhibitor, full curve, poor fit] |  |
| COc1ccc(-c2[nH]c(-c3ccc4c(c3)OCO4)nc2-c2ccccc2)cc1 | inconclusive: 29.1 µM [inhibitor, single point] |  |
| C=CCN1C(=O)/C(=C2/Sc3ccc(OC)cc3N2C)SC1=Nc1ccccc1 | inconclusive: 29.1 µM [inhibitor, single point] |  |
| COc1ccc(CCN2C(=O)C3C(C2=O)C2C=CC3C23CC3)cc1OC (centres undefined) | inconclusive: 11.2 µM [inhibitor, partial curve, poor fit] |  |
| NS(=O)(=O)c1cccc(NC(=O)COC(=O)CCSc2ccccc2)c1 |  | inactive: 0.814% |
| O=C(Cn1nc(-c2ccccc2)c2ccccc2c1=O)NN1CCOCC1 |  | inactive: 4.36% [at 46.1 µM] |
| COc1cc(OC)c(CN2CCN(c3ccc(F)cc3)CC2)cc1Br | inconclusive: 18.3 µM [activator, single point] |  |
| COc1ccc(OC)c(Nc2c3c(nc4ccccc24)CCC3)c1 | inconclusive: 8.91 µM [inhibitor, partial curve, poor fit] |  |
| N#C/C(=C\c1ccccc1)C(=O)NCc1ccc(F)cc1 | inconclusive: 31.6 µM [inhibitor, single point] |  |
| CCCN(Cc1cccs1)C(=O)Nc1ccc(F)c(Cl)c1 |  | inactive: 0.77% [at 46.1 µM] |
| NC(=O)c1cc(Br)cc2c3c([nH]c12)CCCC3 | inconclusive: 3.55 µM [inhibitor, partial curve, poor fit] |  |
| Cc1ccc(C)c(CN2CCN(c3ncccn3)CC2)c1 |  | inactive: 4.79% [at 46.1 µM] |
| C=CCC(C=C)S(=O)(=O)c1ccc(C)cc1 (centres undefined) | inconclusive: 18.3 µM [activator, single point] |  |

More results

| SMILES | Potency | activity change, negative = inhibition |
| --- | --- | --- |
| Cc1nc(SCC(=O)N2CCCCCC2)[nH]c(=O)c1C | inconclusive: 6.31 µM [activator, single point] |  |
| CCc1ccc(NC(=O)c2ccc(F)c(S(=O)(=O)NCCc3ccc(OC)c(OC)c3)c2)cc1 | inconclusive: 35.5 µM [inhibitor, partial curve, poor fit] |  |
| CCN1CCN(c2ccc(S(=O)(=O)N3CCCCC3)cc2NC(=O)Cc2ccc(OC)cc2)CC1 |  | inactive: 4.86% |
| CCN(CC(=O)Nc1ccc(NC(C)=O)cc1)C(=O)c1ccc(=O)[nH]c1 | inconclusive: 11.2 µM [activator, partial curve, poor fit] |  |
| COc1ccc(/C=C2/C(=O)N(Cc3ccccc3)N=C2C)cc1 |  | inactive: 8.52% |
| CCOC(=O)c1c(C)sc2c1N(C(=O)CN(CC)CC)c1ccccc1S2 |  | inactive: -12.5% |
| Oc1ccc(Cl)cc1N=Cc1sc2ccccc2c1Cl |  | inactive: -14.9% [at 46.1 µM] |
| O=C(C1CCN(S(=O)(=O)c2cnc[nH]2)CC1)N1CCc2ccccc2C1 |  | inactive: 6.91% |
| CCOC(=O)c1cc(C#N)c(SCC(=O)Nc2ccc(C(C)=O)cc2)[nH]c1=O |  | inactive: 13.6% |
| Cc1ccc(NC(=O)CN(C)C(=O)Cc2c(Cl)cccc2Cl)cc1 |  | inactive: -19% |
| COc1ccc(Cn2nnc3c(=O)[nH]c(C4CCN(C(=O)c5ccccc5Cl)CC4)nc32)cc1 | inconclusive: 0.708 µM [inhibitor, single point] |  |
| Cc1noc(C)c1-c1nc(CSc2ccc(Cl)cc2)no1 | inconclusive: 31.6 µM [inhibitor, single point] |  |
| C/C(=N\NC(N)=S)C1C2C3CC4C5CC(C42)C1C53 (centres undefined) |  | inactive: -9.58% [at 46.1 µM] |
| CC(C)c1ccc(N(CC(=O)NCCSC(C)(C)C)S(C)(=O)=O)cc1 | inconclusive: 3.66 µM [activator, partial curve, poor fit] |  |
| NS(=O)(=O)c1ccc(NC(=O)CSc2nc3c(cnn3-c3ccccn3)c(=O)[nH]2)cc1 | inconclusive: 17.8 µM [inhibitor, partial curve, poor fit] |  |
| COC(C(=O)NC1CCCCCCC1)c1ccccc1 (centres undefined) |  | inactive: -2.73% |
| COC(=O)CC1C(=O)NCCN1C(=O)c1ccccc1 (centres undefined) | inconclusive: 0.0891 µM [inhibitor, full curve, poor fit] |  |
| CCOC(=O)C1CCCN(C(=O)c2ccc(NC(=O)c3nsc4ccccc34)cc2)C1 (centres undefined) | inconclusive: 3.55 µM [activator, partial curve, poor fit] |  |
| CCOC(=O)c1ccc2[nH]c3c(c2c1)CCCC3O (centres undefined) |  | inactive: -23.1% |
| C[C@@H](C(=O)Nc1ccccc1N1CCOCC1)N1C(=O)C2CC=CCC2C1=O (some centres undefined) |  | inactive: 1.9% |
| CCC(C)NC(=O)c1c(N)n(CC2CCCO2)c2nc3ccccc3nc12 (centres undefined) |  | inactive: -14% |
| O=C(CCS(=O)(=O)Cc1ccccc1)Nc1ncc([N+](=O)[O-])s1 |  | inactive: 8.13% [at 46.1 µM] |
| O=C(c1ccccc1)c1ccccc1N1C(=O)C=CC1=O | inconclusive: 35.5 µM [inhibitor, single point] |  |

| SMILES | Potency | activity change, negative = inhibition |
| --- | --- | --- |
| O=C(Nc1ccc2cn[nH]c2c1)c1ccccc1F | inconclusive: 29.1 µM [inhibitor, single point] |  |
| CC1(C)Cc2ccccc2-c2nnc(SCC(=O)N3CCN(c4ccccc4)CC3)n21 | inconclusive: 29.1 µM [inhibitor, single point] |  |
| CCc1ccc(N2CC(C(=O)OCC(=O)Nc3ccc([N+](=O)[O-])cc3)CC2=O)cc1 (centres undefined) |  | inactive: -0.861% |
| CCOc1ccccc1NC(=O)CNC(=O)Cc1ccccc1 | inconclusive: 20 µM [inhibitor, single point] |  |
| CCOC(=O)c1c(C)[nH]c(CCC(=O)NCCCN2CCN(c3ccccc3F)CC2)c1C |  | inactive: 11.1% [at 46.1 µM] |
| CCN1C(=O)/C(=C\N(C)C)c2ccccc21 |  | inactive: 12% |
| Cc1ccc(-c2nn(-c3cc(Cl)ccc3[N+](=O)[O-])c(=O)c3ccccc23)cc1C | inconclusive: 35.5 µM [inhibitor, single point] |  |
| CCN(CC)c1ccc(/C=C/c2cccc[n+]2C)c(OC)c1 | inconclusive: 1.41 µM [inhibitor, full curve, poor fit] |  |
| CC(=O)Nc1ccc(S(=O)(=O)N2CCC(C(=O)c3ccc(Cl)cc3)CC2)cc1 | inconclusive: 3.98 µM [inhibitor, partial curve, poor fit] |  |
| O=C1CC(c2ccco2)c2ccc3ccccc3c2N1 (centres undefined) | inconclusive: 0.794 µM [activator, single point] |  |
| COc1cccc(NC(=O)CN2C(=O)C(c3ccc(C)cc3)=NC23CCCCCC3)c1 |  | inactive: -5.28% |
| CN(CCO)c1cc(NCCCN2CCC(Cc3ccccc3)CC2)c2nonc2c1[N+](=O)[O-] | inconclusive: 35.5 µM [inhibitor, single point] |  |
| CCC(C(=O)Nc1cccc(C(=O)O)c1)c1ccccc1 (centres undefined) |  | inactive: 5.58% |
| CC(C)OCCCN1C(=O)c2[nH]nc(-c3ccccc3O)c2C1c1cccc(OCc2ccccc2)c1 (centres undefined) | inconclusive: 1.58 µM [inhibitor, full curve, poor fit] |  |
| Cn1nnnc1SCC(=O)Nc1ccccc1C(=O)NCc1ccccc1 | inconclusive: 1.64 µM [activator, single point] |  |
| COC1=C(C)C(=O)C2=C(C1=O)C1C3CC4=C(C(=O)C(OC)=C(C)C4=O)C(CNC(=O)C(C)=O)N3C(C#N)C(C2)N1C (centres undefined) | inconclusive: 1.78 µM [inhibitor, full curve, poor fit] |  |
| CCCOC(=O)c1ccc(NC(=O)CCC(=O)OCC)cc1 |  | inactive: 29.2% |
| O=C(/C=C/c1ccc2c(c1)OCO2)NCCS(=O)(=O)N1CCN(c2ccc(F)cc2)CC1 | inconclusive: 10 µM [inhibitor, partial curve, poor fit] |  |
| Cc1ccc2c(c1)C(c1ccc(F)cc1)N(C(=O)c1cccc(C(F)(F)F)c1)CC(=O)N2 (centres undefined) |  | inactive: -26.1% [at 46.1 µM] |
| Cc1cc(C)c(NC(=S)NC(CO)(CO)CO)c(C)c1 | inconclusive: 22.4 µM [inhibitor, single point] |  |
| COc1ccc(CN2CCN(S(=O)(=O)c3ccc(C)cc3)CC2)cc1Br | inconclusive: 16.4 µM [inhibitor, single point] |  |
| OCCC1CN(CC2CCCCC2)CCN1CC1CCCCC1 (centres undefined) | inconclusive: 6.31 µM [inhibitor, single point] |  |
| Cc1nc2c(c(C)nn2C(C)(C)C)c(C)c1CCC(=O)Nc1ccc(Br)cc1Br | inconclusive: 7.08 µM [inhibitor, full curve, poor fit] |  |
